Data as given in PubChem BioAssay AID743454 (Peter MacCallum Cancer Centre, 2014)
Screen: 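Search for knock-downs that restore vorinostat killing in resistant colon cancer cells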 (primary screen). System: human HCT116-VR colon cancer cells, selected for vorinostat resistance. Knock-down reagent: siRNA pool against human genes, 40 nM siRNA pool. Time to read-out: vorinostat for 24 h, read-out about 72 h after transfection. Treatment: vorinostat at 2.5 µM final. Read-out: 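Two measures, CellTiter-Fluor viability and luminescent caspase 3/7 activity, each as fold change against same-plate mock wells, mean of duplicates, then screen-wide robust z-score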. Scale: viability robust z-score: higher = more viable cells than screen typical; caspase robust z-score: higher = more caspase 3/7 activity than screen typical. Hit rule: 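Hits are knock-downs in viability class RV1/RV2 or caspase class CA1/CA2, excluding ones that killed cells in the no-drug cell-count arm; hits then retested with single siRNAs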.
This is one part, drawn at random, of about 18,000 reagents. 450 of them (2.5%) count as active. 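Single biological run; no consistent viability z cut-off exists, so the class columns, not z-scores, define the calls.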 No sequences are given here.

| Target gene | viability hit class | caspase hit class | viability robust z-score | caspase robust z-score | Outcome |
| --- | --- | --- | --- | --- | --- |
| CCL4L1 (GeneID 388372) | no change | no change | 0.57 | 0.34 | inactive |
| GABARAP (GeneID 11337) | no change | no change | 0.2 | -0.91 | inactive |
| MRM3 (GeneID 55178) | no change | no change | 0.92 | -0.41 | inactive |
| MAPK1IP1L (GeneID 93487) | no change | no change | 1.81 | 0.21 | inactive |
| GTF2H5 (GeneID 404672) | no change | no change | -0.2 | -0.26 | inactive |
| NCBP1 (GeneID 4686) | no change | no change | -1.06 | 0.32 | inactive |
| CD1E (GeneID 913) | no change | no change | 0.61 | 0.12 | inactive |
| EOLA2 (GeneID 541578) | no change | no change | 0.56 | 2.06 | inactive |
| TMEM86B (GeneID 255043) | no change | no change | 0.62 | 0.22 | inactive |
| CEP162 (GeneID 22832) | no change | no change | -0.7 | -0.5 | inactive |
| ZBTB9 (GeneID 221504) | no change | no change | -0.28 | -0.81 | inactive |
| SLC31A2 (GeneID 1318) | no change | no change | -1.23 | 1.08 | inactive |
| CIAO2A (GeneID 84191) | no change | no change | 0.72 | -0.25 | inactive |
| BLM (GeneID 641) | no change | no change | 1.05 | -0.3 | inactive |
| HAUS8 (GeneID 93323) | no change | no change | 0.46 | 0.18 | inactive |
| VAMP8 (GeneID 8673) | no change | no change | -0.18 | -1.12 | inactive |
| ARID4A (GeneID 5926) | no change | no change | -0.44 | 1.66 | inactive |
| TMCC1 (GeneID 23023) | no change | no change | 0.36 | 0.9 | inactive |
| STX5 (GeneID 6811) | no change | no change | -0.04 | -0.48 | inactive |
| S100A3 (GeneID 6274) | no change | no change | 0.65 | -0.62 | inactive |
| HEXIM1 (GeneID 10614) | no change | no change | 0 | -0.14 | inactive |
| MAP7 (GeneID 9053) | no change | no change | 0.62 | -0.99 | inactive |
| OXCT1 (GeneID 5019) | no change | no change | 1.37 | 0.31 | inactive |
| SERPINB4 (GeneID 6318) | no change | no change | -0.35 | -0.96 | inactive |
| MT1E (GeneID 4493) | no change | no change | 0.61 | -0.62 | inactive |
| MTHFSD (GeneID 64779) | no change | no change | 0.34 | 0.07 | inactive |
| PGM2L1 (GeneID 283209) | no change | no change | -1.15 | 0.14 | inactive |
| SLC39A9 (GeneID 55334) | no change | no change | 0.19 | 0.5 | inactive |
| TFG (GeneID 10342) | no change | no change | -1.08 | 4.33 | inactive |
| ITPR3 (GeneID 3710) | no change | no change | 0.14 | -0.66 | inactive |
| FRAT1 (GeneID 10023) | no change | no change | 0.01 | 4.31 | inactive |
| RBSN (GeneID 64145) | no change | no change | -0.98 | 0.48 | inactive |
| STX6 (GeneID 10228) | no change | no change | -1.95 | 0.4 | inactive |
| MTAP (GeneID 4507) | no change | no change | 0.22 | -0.26 | inactive |
| SDK2 (GeneID 54549) | no change | no change | 0.76 | 0.16 | inactive |
| DEFB134 (GeneID 613211) | no change | no change | 0.98 | -0.55 | inactive |
| LRRIQ1 (GeneID 84125) | no change | no change | 0.88 | -0.65 | inactive |
| PTCRA (GeneID 171558) | no change | no change | -1.56 | 2.38 | inactive |
| MAP3K14 (GeneID 9020) | no change | no change | -0.3 | 0.87 | inactive |
| MYO5B (GeneID 4645) | no change | no change | 0.74 | 0.35 | inactive |
| CLPSL1 (GeneID 340204) | no change | no change | 0.38 | 0.53 | inactive |
| OR4D2 (GeneID 124538) | no change | no change | -1.13 | -0.53 | inactive |
| SCML2 (GeneID 10389) | no change | no change | -0.5 | 1.19 | inactive |
| HDHD2 (GeneID 84064) | no change | no change | 0.38 | 0.12 | inactive |
| RAB12 (GeneID 201475) | no change | no change | 0.5 | 0.2 | inactive |
| BOK (GeneID 666) | no change | no change | 0.14 | -0.96 | inactive |

Continued, starting with the last 9 of the part before.
| Target gene | viability hit class | caspase hit class | viability robust z-score | caspase robust z-score | Outcome |
| --- | --- | --- | --- | --- | --- |
| PTCRA (GeneID 171558) | no change | no change | -1.56 | 2.38 | inactive |
| MAP3K14 (GeneID 9020) | no change | no change | -0.3 | 0.87 | inactive |
| MYO5B (GeneID 4645) | no change | no change | 0.74 | 0.35 | inactive |
| CLPSL1 (GeneID 340204) | no change | no change | 0.38 | 0.53 | inactive |
| OR4D2 (GeneID 124538) | no change | no change | -1.13 | -0.53 | inactive |
| SCML2 (GeneID 10389) | no change | no change | -0.5 | 1.19 | inactive |
| HDHD2 (GeneID 84064) | no change | no change | 0.38 | 0.12 | inactive |
| RAB12 (GeneID 201475) | no change | no change | 0.5 | 0.2 | inactive |
| BOK (GeneID 666) | no change | no change | 0.14 | -0.96 | inactive |
| SEC23B (GeneID 10483) | no change | no change | -0.63 | 1 | inactive |
| NFIL3 (GeneID 4783) | no change | no change | -0.02 | -1.17 | inactive |
| PSMB5 (GeneID 5693) | no change | no change | -5.65 | 3.34 | inactive |
| CCL21 (GeneID 6366) | no change | no change | -0.11 | 0.22 | inactive |
| CENPA (GeneID 1058) | no change | no change | 0.85 | -0.55 | inactive |
| MYL4 (GeneID 4635) | no change | no change | -0.15 | 1.71 | inactive |
| C3P1 (GeneID 388503) | no change | no change | -0.1 | 0.2 | inactive |
| PCDHA3 (GeneID 56145) | no change | no change | 0.67 | -0.56 | inactive |
| MRS2 (GeneID 57380) | no change | no change | 0.11 | 0.9 | inactive |
| NHERF2 (GeneID 9351) | no change | no change | 0.1 | 1.5 | inactive |
| TIMM17A (GeneID 10440) | no change | no change | -1.15 | 4.52 | inactive |
| H2BC8 (GeneID 8339) | no change | no change | 0.23 | 0.69 | inactive |
| OAF (GeneID 220323) | no change | no change | -1.59 | 2.1 | inactive |
| NSMAF (GeneID 8439) | no change | no change | 0.78 | 0.55 | inactive |
| ACAD10 (GeneID 80724) | no change | no change | -1.12 | 0.53 | inactive |
| AKR1A1 (GeneID 10327) | no change | no change | -1.23 | 2.68 | inactive |
| VPS26B (GeneID 112936) | no change | no change | 1.34 | 2.95 | inactive |
| CMTM7 (GeneID 112616) | no change | no change | 0.16 | -0.18 | inactive |
| AP2S1 (GeneID 1175) | no change | no change | -2 | -0.05 | inactive |
| PIK3C2A (GeneID 5286) | no change | no change | -4.02 | 1.24 | inactive |
| GPR139 (GeneID 124274) | no change | no change | -0.39 | 0.95 | inactive |
| DIABLO (GeneID 56616) | no change | no change | -0.03 | -0.08 | inactive |
| SPATA31H1 (GeneID 84226) | no change | no change | 0.14 | -0.3 | inactive |
| ADAMTS1 (GeneID 9510) | no change | no change | -2.13 | -0.45 | inactive |
| CCN4 (GeneID 8840) | no change | no change | -0.2 | 2.5 | inactive |
| DZIP1L (GeneID 199221) | no change | no change | 1.06 | -0.9 | inactive |
| PRPF40B (GeneID 25766) | no change | no change | -0.84 | 0.2 | inactive |
